For 18 compounds, Renilla luciferase signal results are on record in the supplement of paper PMC9254222.

In all, about 1,100 compounds were measured (“Renilla luciferase signal (cell health) relative to plate median”: median about 0.97, highest 2% from about 1.6 on). The list shows a part of the results, in another mix than the full data.

In the assay the test system is HEK293T (UBE3A T485A transfected, BAR Wnt reporter). Briefly: Renilla luciferase signal (cell health) relative to plate median (fold (linear ratio)); higher = higher Renilla signal. To be noted: 24 h. A digest of the protocol: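 Chemicals were robotically dosed at 0.01–100 uM for 24 h onto HEK293T cells, starting four hours after transfection with a BAR firefly luciferase Wnt reporter, TK-Renilla and an expression plasmid. The cells had been plated at 4500 cells/well in DMEM with 10% FBS at 37°C and 5% CO2. Following a Dual-Glo luciferase readout, the firefly/Renilla ratio served as the Wnt activity measure and raw Renilla as the cell health measure, both median-centred on each plate. Each value is the mean of four biological replicates.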

Turning to `O=C(c1ccc(O)cc1O)c1ccc(O)cc1O` [2,2',4,4'-Tetrahydroxybenzophenone], the Renilla luciferase signal by setting is: (concentration: 0.1 uM) 0.947; (concentration: 1 uM) 0.856; (concentration: 10 uM) 1; (concentration: 100 uM) 0.112.
In the case of `c1ccc2[nH]nnc2c1` [1,2,3-Benzotriazole], the Renilla luciferase signal (concentration: 0.1 uM) was 1.01, the Renilla luciferase signal (concentration: 1 uM) amounted to 1.02, the Renilla luciferase signal (concentration: 10 uM) is 0.978 and the Renilla luciferase signal (concentration: 100 uM) worked out at 0.904.
With `COC(=O)CCCC(=O)OC` [Dimethyl glutarate], the Renilla luciferase signal is 0.966 (concentration: 0.1 uM), 1.05 (concentration: 1 uM), 1.05 (concentration: 10 uM) and 1.13 (concentration: 100 uM).
Turning to `CN1C(=O)N(c2ccccc2Br)Cc2cnc(Nc3ccc4c(c3)OCC(CO)O4)nc21` (stereo not given), the Renilla luciferase signal stood at 0.198 (concentration: 0.1 uM), 0.191 (concentration: 1 uM), 0.209 (concentration: 10 uM) and 0.0276 (concentration: 100 uM).
Regarding `CC(=O)[C@H]1CC[C@H]2[C@@H]3CCC4=CC(=O)CC[C@]4(C)[C@H]3CC[C@]12C` [Progesterone], the Renilla luciferase signal by setting is: (concentration: 0.1 uM) 0.973; (concentration: 1 uM) 1.02; (concentration: 10 uM) 1.24; (concentration: 100 uM) 0.311.
Turning to `CCN(CC)C(=O)c1cccc(C)c1`, for the setting “concentration: 100 uM”, the Renilla luciferase signal is 1.79.
Take `CC(=O)O` [Acetic acid]: the Renilla luciferase signal was 0.901 (concentration: 0.1 uM), 0.923 (concentration: 1 uM), 0.914 (concentration: 10 uM) and 1.41 (concentration: 100 uM).
Regarding `CCCCCCCCCC[N+](C)(C)[O-]` [N,N-Dimethyldecylamine oxide], the Renilla luciferase signal reads like this: (concentration: 0.1 uM) 0.476; (concentration: 1 uM) 0.585; (concentration: 10 uM) 0.465; (concentration: 100 uM) 0.355.
As for `O=S(=O)([O-])c1ccc(/N=N/c2c(O)ccc3cc(S(=O)(=O)[O-])ccc23)cc1.[Na+].[Na+]` [FD&C Yellow 6], the Renilla luciferase signal by setting is: (concentration: 0.1 uM) 1.01; (concentration: 1 uM) 1.01; (concentration: 10 uM) 1.07; (concentration: 100 uM) 0.704.
For the compound `CCNc1nc(N)nc(Cl)n1` [Deisopropylatrazine], the Renilla luciferase signal (concentration: 0.01 uM) stood at 0.898; the Renilla luciferase signal (concentration: 0.1 uM) worked out at 0.991; the Renilla luciferase signal (concentration: 1 uM) was 0.951; the Renilla luciferase signal (concentration: 10 uM) amounted to 0.879; the Renilla luciferase signal (concentration: 100 uM) amounted to 0.243.
Take `CC(C)=CCC/C(C)=C\CO` [(2Z)-3,7-Dimethylocta-2,6-dien-1-ol]: the Renilla luciferase signal reads like this: (concentration: 0.1 uM) 1.14; (concentration: 1 uM) 1.06; (concentration: 10 uM) 1.09; (concentration: 100 uM) 1.45.
Turning to `Cc1ccccc1Cl` [2-Chlorotoluene], the Renilla luciferase signal is, setting by setting: (concentration: 0.1 uM) 1.09; (concentration: 1 uM) 1.12; (concentration: 10 uM) 1.15; (concentration: 100 uM) 1.29.
`C=CN1CCCC1=O` [N-Vinyl-2-pyrrolidone]: the Renilla luciferase signal reads like this: (concentration: 0.1 uM) 0.841; (concentration: 1 uM) 0.842; (concentration: 10 uM) 0.808; (concentration: 100 uM) 0.931.
Regarding `O=C(N[C@@H](c1ccccc1)[C@@H]1CCCCN1)c1cccc(C(F)(F)F)c1Cl`, the Renilla luciferase signal runs as follows: (concentration: 0.1 uM) 0.934; (concentration: 1 uM) 0.85; (concentration: 10 uM) 0.48; (concentration: 100 uM) 0.0297.
For `O=C(O)/C=C/C(=O)O.O=C1c2ccccc2C(=O)N1CCc1noc(-c2ccc(CN3CCCCCC3)s2)n1` the same measures were 0.928, 0.898, 0.893 and 0.711.
Consider `CCNc1cccc(C)c1` [N-Ethyl-3-methylaniline], for which the Renilla luciferase signal worked out at 1.02 (concentration: 0.1 uM), 0.916 (concentration: 1 uM), 0.98 (concentration: 10 uM) and 0.872 (concentration: 100 uM).
For `CCCCOC(=O)CCCCCCCCC(=O)OCCCC` [Dibutyl decanedioate] the same measures were 0.969, 1.05, 1.06 and 1.01.
`O=C(OCCCCCCOC(=O)c1ccccc1)c1ccccc1` [Hexane-1,6-diyl dibenzoate]: the Renilla luciferase signal runs as follows: (concentration: 0.1 uM) 0.949; (concentration: 1 uM) 1.06; (concentration: 10 uM) 1.04; (concentration: 100 uM) 1.06.
